In US20100173332A1, “Method for the Fluorescent Detection of Nitroreductase Activity Using Nitro-Substituted Aromatic Compounds” (Auckland Uniservices Limited, priority 2006, published 2010):
Some results were stated once for a whole list of compounds, not compound by compound.

Sequences of proteins named here, by UniProt entry; tags and fusion partners are left off. A change or cut given only in a name is not applied to a line headed by its entry.
UniProt P38489: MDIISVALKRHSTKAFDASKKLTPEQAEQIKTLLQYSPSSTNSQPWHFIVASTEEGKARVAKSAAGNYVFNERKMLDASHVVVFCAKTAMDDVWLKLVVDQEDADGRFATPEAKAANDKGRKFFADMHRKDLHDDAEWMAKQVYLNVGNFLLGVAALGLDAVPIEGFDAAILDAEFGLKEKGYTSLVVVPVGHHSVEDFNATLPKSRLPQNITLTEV

These molecules were tested against T1, E. coli nitroreductase (nfsB) (Escherichia coli, UniProt P38489) (assay: Detecting E. coli nitroreductase (nfsB) reporter gene activity in intact MDA231 cells (96-well)). Settings: 100 μM, 4 hr.
T1 construct: expressed in transfected cells; host or cells: MDA231 (MDA-231) human breast cancer cell line, clonal derivative MDA231 NTR
Format: cell-based
For `O=c1cc[nH]c2ccc([N+](=O)[O-])cc12` [Compound 1, 6-Nitro-4(1H)-quinolinone], the “fluorescence in cell-free control or parental MDA231 WT cultures” value was “No fluorescence was observed”. In the case of `Cn1ccc(=O)c2cc([N+](=O)[O-])ccc21` [Compound 2, 1-Methyl-6-nitro-4(1H)-quinolinone], the “fluorescence in cell-free control or parental MDA231 WT cultures” value was “No fluorescence was observed”. `Cc1cc(=O)c2cc([N+](=O)[O-])ccc2[nH]1` [Compound 3, 2-Methyl-6-nitro-4(1H)-quinolinone] was tested, and the “fluorescence in cell-free control or parental MDA231 WT cultures” value was “No fluorescence was observed”. In the case of `CN(C)CCNC(=O)c1cc([N+](=O)[O-])cc2c(O)c3ccccc3nc12` [Compound 4, N-[2-(Dimethylamino)ethyl]-2-nitro-9-oxo-9,10-dihydro-4-acridinecarboxamide], the “fluorescence in cell-free control or parental MDA231 WT cultures” value was “No fluorescence was observed”. For `O=c1[nH]cnc2ccc([N+](=O)[O-])cc12` [Compound 5, 6-Nitro-4(3H)-quinazolinone], the “fluorescence in cell-free control or parental MDA231 WT cultures” value was “No fluorescence was observed”. `O=c1[nH]c(-c2ccccc2)nc2ccc([N+](=O)[O-])cc12` [Compound 6, 6-Nitro-2-phenyl-4(3H)-quinazolinone] was tested, and the “fluorescence in cell-free control or parental MDA231 WT cultures” value was “No fluorescence was observed”. For `O=[N+]([O-])c1ccc2[nH]c(-c3ccccc3)nc2c1` [Compound 7, 5-Nitro-2-phenyl-1H-benzimidazole], the “fluorescence in cell-free control or parental MDA231 WT cultures” value was “No fluorescence was observed”. For `COC(=O)CCCNS(=O)(=O)c1cccc2c([N+](=O)[O-])cccc12` [Compound 8, methyl 4-{[(5-nitro-1-naphthyl)sulfonyl]amino}butanoate], the “fluorescence in cell-free control or parental MDA231 WT cultures” value was “No fluorescence was observed”. In the case of `COC(=O)CCCNS(=O)(=O)c1ccc2c([N+](=O)[O-])cccc2c1` [Compound 9, methyl 4-{[(5-nitro-2-naphthyl)sulfonyl]amino}butanoate], the “fluorescence in cell-free control or parental MDA231 WT cultures” value was “No fluorescence was observed”. With `COC(=O)CCCNS(=O)(=O)c1ccc2cccc([N+](=O)[O-])c2c1` [Compound 10, methyl 4-{[(8-nitro-2-naphthyl)sulfonyl]amino}butanoate] the “fluorescence in cell-free control or parental MDA231 WT cultures” value was “No fluorescence was observed”. For `CN(C)CCCCN1C(=O)c2cccc3cc([N+](=O)[O-])cc(c23)C1=O` [Compound 11, 2-[4-(Dimethylamino)butyl]-5-nitro-1H-benzo[de]isoquinoline-1,3(2H)-dione], the “fluorescence in cell-free control or parental MDA231 WT cultures” value was “No fluorescence was observed”. With `O=c1oc2cc([N+](=O)[O-])ccc2c2ccccc12` [Compound 12, 3-Nitro-6H-benzo[c]chromen-6-one] the “fluorescence in cell-free control or parental MDA231 WT cultures” value was “No fluorescence was observed”. `COC(=O)Cn1ccc(=O)c2cc([N+](=O)[O-])ccc21` [Compound 13, Methyl (6-nitro-4-oxo-1(4H)-quinolinyl)acetate] was tested, and the “fluorescence in cell-free control or parental MDA231 WT cultures” value was “No fluorescence was observed”. In the case of `CN(C)CCCOc1ccnc2cc([N+](=O)[O-])ccc12` [Compound 14, N,N-dimethyl-3-[(7-nitro-4-quinolinyl)oxy]-1-propanamine], the “fluorescence in cell-free control or parental MDA231 WT cultures” value was “No fluorescence was observed”. With `CN(C)CCCNc1ccnc2cc([N+](=O)[O-])ccc12` [Compound 15, N^1,N^1-Dimethyl-N^3-(7-nitro-4-quinolinyl)-1,3-propanediamine] the “fluorescence in cell-free control or parental MDA231 WT cultures” value was “No fluorescence was observed”.
